Measured values from US20120238491A1, “IMMUNOLOGICALLY ACTIVE LIPOPEPTIDES AND METHODS FOR USE THEREOF” (THERIMUNEX PHARMACEUTICALS, INC., priority 2009, published 2012).
Some results were stated once for a whole list of compounds, not compound by compound.

What was measured:
human fibroblasts = assay: Inflammatory cytokine and chemokine production by human fibroblasts (overall stimulation); format: cell-based; settings: signaling in human fibroblasts
Protocol: mRNA Expression Experiments. Normal primary human fibroblasts obtained from the Coriell Institute (Camden, N.J.) were cultured in 70 mm dishes in DMEM supplemented with 10% FBS and 1× penicillin/streptomycin at 37° C. and 5% CO2. Human fibroblasts were incubated in the presence of the serum fractions, compound pDAG, the peptide moiety of pDAG, or diacylglycerol. In the initial experiments we examined the differences between fibroblasts treated with the various serum fractions, synthetic pDAG (the peptide moiety from pDAG or diacylglycerol), fibroblasts treated with LPS as a positive control, and fibroblasts without treatment. The culture medium was stored at −80° C. for ELISA of the excreted cytokine proteins (see below). Total RNA from fibroblasts was extracted using the RNeasy Mini kit (Qiagen, Valencia, Calif.) according to the manufacturer's protocol. To verify the expression of transcripts; 2.0 μg of total RNA was reverse-transcribed using Super-script-III reverse transcriptase (Invitrogen, Carlsbad Calif.), according to the manufacturer's protocol. Transcripts were quantified using SYBR Green PCR amplification (Perkin Elmer, Waltham Mass.). Primers employed in these studies are outlined in Table 6, below. All transcripts were normalized to β-actin. Briefly, 0.4 μg/μL of cDNA was tested with 10 μM of each specific primer and 1× SYBR Green in a total volume of 20 uL. […]

IL-33 mRNA = IL-33 mRNA expression in human fibroblasts; format: cell-based
Protocol: Therefore we speculated that the diacylglycerol moiety enabled the peptide to cross the cell membrane. To test this hypothesis and to ascertain the biological role of the diacylglycerol moiety in compound pDAG, if any, the peptide moiety transfected into human fibroblasts or diacylglycerol alone were evaluated by measuring the expression of mRNA (IL-1, IL-6, IL-8, IL-18, and IL-33). […] Diacylglycerol could stimulate mRNA expression of IL-33 and IL-18, but not IL-1 in fibroblasts. […] Normal primary human fibroblasts obtained from the Coriell Institute (Camden, N.J.) were cultured in 70 mm dishes in DMEM supplemented with 10% FBS and 1× penicillin/streptomycin at 37° C. and 5% CO2. Human fibroblasts were incubated in the presence of the serum fractions, compound pDAG, the peptide moiety of pDAG, or diacylglycerol. In the initial experiments we examined the differences between fibroblasts treated with the various serum fractions, synthetic pDAG (the peptide moiety from pDAG or diacylglycerol), fibroblasts treated with LPS as a positive control, and fibroblasts without treatment. The culture medium was stored at −80° C. for ELISA of the excreted cytokine proteins (see below). […] Transcripts were quantified using SYBR Green PCR amplification (Perkin Elmer, Waltham Mass.). […]

## 1-peptidyl-2-arachidonoyl-3-stearoyl glyceride [pDAG]
Human fibroblasts; pDAG
  EC99: 1 to 10 nM

## CCCCC/C=C\C/C=C\C/C=C\C/C=C\CCCC(=O)O[C@@H](CO)COC(=O)CCCCCCCCCCCCCCCCC [diacylglycerol, 1-stearoyl-2-arachidonoyl-sn-glycerol, reference compound]
IL-33 mRNA; diacylglycerol alone, ~30 nM
  percent increase in IL-33 mRNA expression: 40-50%

## acALYDKGYTSKEQKDCVGI [peptide moiety of pDAG]
IL-33 mRNA; transfected peptide, ~10 nM
  percent increase in IL-33 mRNA expression: 40-50%
Human fibroblasts; transfected peptide moiety
  EC99: 1 to 10 nM
